Measurements published in PMC8058061.
Results are given in words; binding and its absence hold for the method and conditions named. Binding seen in cells or lysates may run through a third protein. Some entries that bind do so weakly or less than the wild type.

The chains behind the UniProt entries cited, without tags or fusion partners.
UniProt P51863: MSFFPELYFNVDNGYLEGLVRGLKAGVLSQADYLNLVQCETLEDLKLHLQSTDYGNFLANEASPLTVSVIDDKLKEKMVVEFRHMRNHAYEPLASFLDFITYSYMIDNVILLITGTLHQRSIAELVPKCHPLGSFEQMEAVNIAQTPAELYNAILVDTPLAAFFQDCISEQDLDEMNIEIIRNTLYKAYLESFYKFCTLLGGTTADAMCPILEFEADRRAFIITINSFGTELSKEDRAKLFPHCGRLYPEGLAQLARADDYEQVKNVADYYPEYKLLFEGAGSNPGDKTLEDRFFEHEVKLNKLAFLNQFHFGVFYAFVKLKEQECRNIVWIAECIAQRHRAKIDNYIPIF

Biological target: Atp6v0d1 (mouse (endogenous in MEFs)) (UniProt P51863)
Assay: co-IP; whole-cell lysates of untreated MEFs; immunoprecipitation with anti-Atp6v0d1 at 4 °C overnight, Protein A/G magnetic beads 1 h, immunoblotting with anti-DDRGK1

binding: binds
B1: DDRGK domain-containing protein 1 (protein, UniProt Q80WW9 1-315)
chain: MVGPWVYLVAAVLLIGLILFLTRSRGRAAAADGEPLHNEEERAGAGQVGRSLPQESEEQRTGSRPRRRRDLGSRLQAQRRAQRVAWEDGDENVGQTVIPAQEEEGIEKPAEVHPTGKIGAKKLRKLEEKQARKAQREAEEAEREERKRLESQREAEWKKEEERLRLKEEQKEEEERKAQEEQARREHEEYLKLKEAFVVEEEGVSETMTEEQSHSFLTEFINYIKKSKVVLLEDLAFQMGLRTQDAINRIQDLLTEGTLTGVIDDRGKFIYITPEELAAVANFIRQRGRVSITELAQASNSLISWGQDLPAQASA
